Here are results for two sequences from paper PMC6738654, “BZU2/ZmMUTE controls symmetrical division of guard mother cell and specifies neighbor cell fate in maize”.

Construct, isoform or probe ends are uncertain for at least one entry. At least one verdict was read from the data and is not stated in words by the source. Protein sequences can lack the tags named with them.

For the data set, the target named is T1, BZU2/ZmMUTE (Zea mays) (UniProt K7V1X7).
T1 sequence (looked up, limits assumed): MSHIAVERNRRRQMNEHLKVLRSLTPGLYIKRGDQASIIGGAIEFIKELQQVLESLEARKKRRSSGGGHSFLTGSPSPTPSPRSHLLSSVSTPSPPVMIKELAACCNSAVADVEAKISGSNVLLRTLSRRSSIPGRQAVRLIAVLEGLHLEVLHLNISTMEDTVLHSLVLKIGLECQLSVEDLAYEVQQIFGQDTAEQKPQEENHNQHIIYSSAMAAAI
The experiment in a line: EMSA. As to conditions: cold probe competitor 2-, 5-, 10-fold; LightShift Chemiluminescent EMSA Kit (Thermo) per manufacturer; pH and temperature not stated; recombinant protein; label: 5' biotin (cold probe unlabeled). (In general: A gel shift assay detects complexes by their altered migration in electrophoresis.)

As for “CAGCCACAACAGGTGTCCCTTTCAAGTGATCTCTGCA (double strand) [P2 (PAN2 promoter E-boxes -187, -200)]”, the binding result is given as “binds”.

On to “GAATGAGGGGCACCTGGAGAGCACAT (double strand) [P1 (PAN1 promoter E-box -27)]”, for which the binding result is recorded as “binds”.
